Record: PubChem BioAssay AID1259254 (NCATS, 2017)
In all, the deposit lists about 59,000 reagents; this is a random part of them. In the full data, about 1,550 (2.6%) got an active call. 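G2 share is only a proxy for re-replication; each gene was hit by three separate siRNAs, and active genes were retested.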 Entries without a mark were called inactive. The numbers tell different reagents against one gene apart. Not all columns of the deposit are shown. Not given: the amount of reagent.

- Aim: 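Gene knock-downs that lead to re-replication, shown by excess G2 DNA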 (primary screen)
- System: human HCT116 colorectal cancer cells
- Knock-down reagent: single siRNA against human genes
- Duration: 3 days
- Read-out: 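Imaged Hoechst DNA stain sorts each cell into a cycle phase by DNA amount; per plate, G2 fraction set to 0% for non-targeting and 100% for GMNN siRNA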
- Reading the numbers: G2 robust z-score: higher = more G2 cells, more excess DNA replication
- Hit rule: 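An siRNA counts as active if its G2 robust z-score lies at least 5 MADs above the screen median; here such calls match roughly 38% of GMNN control or more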

no.	gene symbol	siRNA no.	G2 robust z-score
1	MRPS14 (mitochondrial ribosomal protein S14)	1	0.0537
2	MRPS14 (mitochondrial ribosomal protein S14)	2	-0.982
3	MRPS14 (mitochondrial ribosomal protein S14)	3	0.473
4	STPG2 (sperm tail PG-rich repeat containing 2)	1	0.5
5	STPG2 (sperm tail PG-rich repeat containing 2)	2	0.0213
6	STPG2 (sperm tail PG-rich repeat containing 2)	3	-0.657
7	CXCL14 (C-X-C motif chemokine ligand 14)	1	2.76
8	CXCL14 (C-X-C motif chemokine ligand 14)	2	0.414
9	CXCL14 (C-X-C motif chemokine ligand 14)	3	-0.588
10	RHEX (regulator of hemoglobinization and erythroid cell expansion)	1	-0.244
11	RHEX (regulator of hemoglobinization and erythroid cell expansion)	2	0.0239
12	RHEX (regulator of hemoglobinization and erythroid cell expansion)	3	-0.958
13	OR52B4 (olfactory receptor family 52 subfamily B member 4)	1	2.23
14	OR52B4 (olfactory receptor family 52 subfamily B member 4)	2	-0.184
15	OR52B4 (olfactory receptor family 52 subfamily B member 4)	3	-0.378
16	PTCH2 (patched 2)	1	1.53
17	PTCH2 (patched 2)	2	8.37 (active)
18	PTCH2 (patched 2)	3	-0.982
19	GPR107 (G protein-coupled receptor 107)	1	-1.25
20	GPR107 (G protein-coupled receptor 107)	2	-0.907
21	GPR107 (G protein-coupled receptor 107)	3	-0.247
22	SC5D (sterol-C5-desaturase)	1	-0.0976
23	SC5D (sterol-C5-desaturase)	2	-0.673
24	SC5D (sterol-C5-desaturase)	3	0.372
25	DMXL2 (Dmx like 2)	1	-1.3
26	DMXL2 (Dmx like 2)	2	1.38
27	DMXL2 (Dmx like 2)	3	-0.842
28	IFT140 (intraflagellar transport 140)	1	-1.31
29	IFT140 (intraflagellar transport 140)	2	4.9
30	IFT140 (intraflagellar transport 140)	3	0.358
31	SCGB2A1 (secretoglobin family 2A member 1)	1	-1.26
32	SCGB2A1 (secretoglobin family 2A member 1)	2	-0.373
33	SCGB2A1 (secretoglobin family 2A member 1)	3	-0.833
34	DCK (deoxycytidine kinase)	1	-0.181
35	DCK (deoxycytidine kinase)	2	-1.32
36	DCK (deoxycytidine kinase)	3	0.689
37	PSMD2 (proteasome 26S subunit ubiquitin receptor, non-ATPase 2)	1	1.24
38	PSMD2 (proteasome 26S subunit ubiquitin receptor, non-ATPase 2)	2	1.86
39	PSMD2 (proteasome 26S subunit ubiquitin receptor, non-ATPase 2)	3	1.42
40	RBM24 (RNA binding motif protein 24)	1	-0.98
41	RBM24 (RNA binding motif protein 24)	2	-1.05
42	RBM24 (RNA binding motif protein 24)	3	2.46
43	ERGIC1 (endoplasmic reticulum-golgi intermediate compartment 1)	1	1.34
44	ERGIC1 (endoplasmic reticulum-golgi intermediate compartment 1)	2	-0.465
45	ERGIC1 (endoplasmic reticulum-golgi intermediate compartment 1)	3	-0.5
46	ATF6 (activating transcription factor 6)	1	-1.42
47	ATF6 (activating transcription factor 6)	2	0.00626
48	ATF6 (activating transcription factor 6)	3	0.818
49	PGLS (6-phosphogluconolactonase)	1	0.469
50	PGLS (6-phosphogluconolactonase)	2	-0.0952
51	PGLS (6-phosphogluconolactonase)	3	-0.232
52	TCF25 (TCF25 ribosome quality control complex subunit)	1	0.274
53	TCF25 (TCF25 ribosome quality control complex subunit)	2	-1.31
54	TCF25 (TCF25 ribosome quality control complex subunit)	3	0.634
55	ZDHHC20 (zDHHC palmitoyltransferase 20)	1	-0.362
56	ZDHHC20 (zDHHC palmitoyltransferase 20)	2	4.17
57	ZDHHC20 (zDHHC palmitoyltransferase 20)	3	-0.705
58	ADGRG3 (adhesion G protein-coupled receptor G3)	1	-1.92
59	ADGRG3 (adhesion G protein-coupled receptor G3)	2	1.78
60	ADGRG3 (adhesion G protein-coupled receptor G3)	3	-0.807
61	CD59 (CD59 molecule (CD59 blood group))	1	1.32
62	CD59 (CD59 molecule (CD59 blood group))	2	1.41
63	CD59 (CD59 molecule (CD59 blood group))	3	0.0584
64	DKC1 (dyskerin pseudouridine synthase 1)	1	0.741
65	DKC1 (dyskerin pseudouridine synthase 1)	2	-0.477
66	DKC1 (dyskerin pseudouridine synthase 1)	3	3.25
67	C11orf24 (chromosome 11 open reading frame 24)	1	0.0886
68	C11orf24 (chromosome 11 open reading frame 24)	2	0.483
69	C11orf24 (chromosome 11 open reading frame 24)	3	-0.308
70	NAGA (alpha-N-acetylgalactosaminidase)	1	1.57
71	NAGA (alpha-N-acetylgalactosaminidase)	2	-0.632
72	NAGA (alpha-N-acetylgalactosaminidase)	3	1.01
73	TIPIN (TIMELESS interacting protein)	1	-0.436
74	TIPIN (TIMELESS interacting protein)	2	-0.5
75	TIPIN (TIMELESS interacting protein)	3	-0.711
76	S100A4 (S100 calcium binding protein A4)	1	-0.622
77	S100A4 (S100 calcium binding protein A4)	2	-0.7
78	S100A4 (S100 calcium binding protein A4)	3	-0.0474
79	CDC42 (cell division cycle 42)	1	3.51
80	CDC42 (cell division cycle 42)	2	3.12
81	CDC42 (cell division cycle 42)	3	1.49
82	C3orf62 (chromosome 3 open reading frame 62)	1	-1.4
83	C3orf62 (chromosome 3 open reading frame 62)	2	-0.739
84	C3orf62 (chromosome 3 open reading frame 62)	3	0.491
85	PRDX3 (peroxiredoxin 3)	1	8.52 (active)
86	PRDX3 (peroxiredoxin 3)	2	1.02
87	PRDX3 (peroxiredoxin 3)	3	-1.42
